Data from US20240067693A1, “POLYPEPTIDES AND USES THEREOF” (MEDIMMUNE LIMITED, priority 2020, published 2024).
At least one peptide structure holds a part that was inferred or is arguable (an end, a ring closure or a residue). Numbered stars: 1 amine (or outer) side, 2 acyl side, 3 side chain; on linkers, the order of the positions; unused ones are H or OH. Bridge positions count the residues as written; N and C are the ends. Side chains are listed from the residue outwards. Peptide text beside a SMILES is read from it. * marks the point of attachment. C20 diacid = O=C(O)CCCCCCCCCCCCCCCCCCC(=O)*; γGlu = O=C(O)[C@H](CCC(=O)[*:2])N[*:1]

Legend:
[1] = Thioflavin T fibrillation assay; assay type: physicochemical; settings: ThT fibrillation assay; peptide 1 mg/mL in 25 mM sodium acetate buffer pH 4.0; 6 days at 37 °C with shaking; >144 h = no increase
Description: Peptide aggregation that form fibrils is an indication of physical instability. Fibril formation in solution poses a significant risk for the stability of injectable peptide drug products. Thioflavin T (ThT) fibrillation assay is a useful tool to assess the aggregation kinetics of a peptide or protein under accelerated and stressed conditions that can be used to forecast the long-term viability of a compound in solution. ThT can selectively bind amyloid fibrils and the resultant complex emits strong fluorescence signal at 482 nm when excited at 450 nm (Anal Biochem. 1989 Mar;177(2):244-9). Monitoring of the change in fluorescence signal is an established method to study the fibril forming potential of peptides and proteins. ThT (purchased from Sigma Aldrich) stock solution is prepared by dissolving the ThT powder in Milli-Q water and filtered to obtain a 0.25 mM solution. The concentration of the solution is measured at 412 nm using an extinction coefficient of 36 mM^−1cm^−1. […] 100 μL aliquot of peptide solution and 5 μL aliquot of ThT solution were placed in a clear bottom black fluorescence 96-well plate. […] The plate was sealed with aluminium seal and placed in fluorescence plate reader and incubated for 6 days at 37 ° C. with intermittent orbital shaking at 500 to 750 rpm. The fluorescence intensity was measured every 30 min using excitation at 444 nm and emission at 480 nm. […]

[2] = test system: lean rats; assay: Rat acute food intake study; assay type: in vivo; settings: lean male Sprague Dawley rats, 20 nmol/kg subcutaneously
Experimental: Male Sprague Dawley rats were obtained from Taconic Denmark, ApS at approximately 7 weeks of age. Rats were implanted with a microchip for identification, housed 4/cage with enrichment, free access to food and water, and allowed one week acclimatisation while non-invasive characterization was performed. Rats were on a 12:12 light:dark cycle that switches at 1pm:1am. Food intake was monitored via the HM2 system (Lafayette Instrument) that allows for monitoring in a home cage. As each rat enters an access tunnel to feed, an IR beam is broken, and the implanted microchip is read. Resulting changes to food weight is then assigned to the specific animal. Social order has shown no impact to overall feeding patterns and amounts.
Rats were sorted into groups based on Day -1 body weight and 24-hour accumulated food intake (n=7 per group). On Day 0 rats were weighed, then fasted for 6 hours. Thirty (30) minutes prior to the reintroduction of food, rats were dosed subcutaneously (5 mL/kg) with 20 nmol/kg of test compound or 60 nmol/kg peptide 1 (pramlintide) diluted in an appropriate vehicle, after which food was returned, and lights went out. Automated food intake was monitored for the following 3 days, and rats were weighed once per day.
Food intake per rat was batched into 1-hour intervals and integrated into Gubra's GubraView data management system. Discrete food intake data was exported into MS Excel from which cumulative food intake data was generated. Cumulative food intake data was then transposed into GraphPad Prism (v8.0.1) for analysis of dark period feeding

Row | SMILES | Time taken to detect increase in fluorescence intensity [1] [h] | Cummulative food intake (% vehicle treated intake) At 12 h [2] [% vehicle treated intake] | Cummulative food intake (% vehicle treated intake) At 24 h [2] [% vehicle treated intake] | Cummulative food intake (% vehicle treated intake) At 48 h [2] [% vehicle treated intake]
1 | CC[C@H](C)[C@H](NC(=O)[C@@H]1CCCN1C(=O)CNC(=O)[C@H](Cc1ccccc1)NC(=O)[C@H](CC(N)=O)NC(=O)[C@H](CC(N)=O)NC(=O)[C@H](CO)NC(=O)[C@H](CO)NC(=O)[C@H](Cc1c[nH]cn1)NC(=O)[C@@H](NC(=O)[C@H](CC(C)C)NC(=O)[C@H](Cc1ccccc1)NC(=O)[C@H](CC(N)=O)NC(=O)[C@H](C)NC(=O)[C@H](CC(C)C)NC(=O)[C@H](CCCNC(=N)N)NC(=O)[C@H](CCC(N)=O)NC(=O)[C@@H](NC(=O)[C@H](C)NC(=O)[C@@H]1CSSC[C@H](NC(=O)[C@@H](N)CCCCNC(=O)CC[C@H](NC(=O)CC[C@H](NC(=O)CCCCCCCCCCCCCCCCCCC(=O)O)C(=O)O)C(=O)O)C(=O)N[C@@H](CC(N)=O)C(=O)N[C@@H]([C@@H](C)O)C(=O)N[C@@H](C)C(=O)N[C@@H]([C@@H](C)O)C(=O)N1)[C@@H](C)O)C(C)C)C(=O)N[C@@H](CC(C)C)C(=O)N1CCC[C@H]1C(=O)N1CCC[C@H]1C(=O)N[C@H](C(=O)N[C@@H](CC(N)=O)C(=O)N[C@H](C(=O)NCC(=O)N[C@@H](CO)C(=O)N[C@@H](CCCNC(=N)N)C(=O)N[C@H](C(=O)N[C@@H](Cc1ccc(O)cc1)C(N)=O)[C@@H](C)O)C(C)C)[C@@H](C)O [Peptide 114] (H-K([γGlu-γGlu-C20 diacid])CNTATCATQRLANFLVHSSNNFGPILPPTNVGSRTY-NH2; disulfide 2-7 (inferred)) | <5 | 42.3 | 45.1 | 53.8
2 | CC[C@H](C)[C@H](NC(=O)[C@H](C)NC(=O)[C@@H]1CCCN1C(=O)[C@H](Cc1ccccc1)NC(=O)[C@H](CC(N)=O)NC(=O)[C@@H]1CCCN1C(=O)[C@H](CO)NC(=O)[C@H](CO)NC(=O)[C@H](Cc1c[nH]cn1)NC(=O)[C@@H](NC(=O)[C@H](CC(C)C)NC(=O)[C@H](Cc1ccccc1)NC(=O)[C@H](CC(N)=O)NC(=O)[C@H](C)NC(=O)[C@H](CC(C)C)NC(=O)[C@H](CCCNC(=N)N)NC(=O)[C@H](CCC(N)=O)NC(=O)[C@@H](NC(=O)[C@H](C)NC(=O)[C@@H]1CSSC[C@H](NC(=O)[C@@H](N)CCCCNC(=O)CC[C@H](NC(=O)CC[C@H](NC(=O)CCCCCCCCCCCCCCCCCCC(=O)O)C(=O)O)C(=O)O)C(=O)N[C@@H](CC(N)=O)C(=O)N[C@@H]([C@@H](C)O)C(=O)N[C@@H](C)C(=O)N[C@@H]([C@@H](C)O)C(=O)N1)[C@@H](C)O)C(C)C)C(=O)N[C@@H](CC(C)C)C(=O)N[C@@H](CO)C(=O)N1CCC[C@H]1C(=O)N[C@H](C(=O)N[C@@H](CC(N)=O)C(=O)N[C@H](C(=O)NCC(=O)N[C@@H](CO)C(=O)N[C@@H](CC(N)=O)C(=O)N[C@H](C(=O)N[C@@H](Cc1ccc(O)cc1)C(N)=O)[C@@H](C)O)C(C)C)[C@@H](C)O [Peptide 115] (H-K([γGlu-γGlu-C20 diacid])CNTATCATQRLANFLVHSSPNFPAILSPTNVGSNTY-NH2; disulfide 2-7 (inferred)) | <5 | 42.4 | 41.3 | 52.2
